# PubChem BioAssay (EPA / NIEHS)
# Inconclusive means that the source gave no clear call. Such entries were picked first, then a sample of the others. Potencies beside an inconclusive call are fits to weak or partial responses and may not hold up. Some structures have more than one record in an assay (separate samples or runs), and their calls can disagree. The source made the active and inactive calls. The calls were made as follows: active = hit-call score of the fitted dose curve at least 0.9, where 1 is the maximum; inconclusive = response in the unintended direction; inactive = score below 0.9.
# Experiment: CCTE_Deisenroth_AIME_384WELL_CTox_Inactive: Cytotoxicity Assessment (CTOX) in CCTE's 384-well Estrogen Receptor Transactivation Assay without AIME metabolic competence (metabolism negative), Deisenroth Lab (AID 2284039);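 also: cell viability via live-cell protease substrate cleaved to fluorescent probe; cells exposed 24 h to medium preincubated 2 h with alginate-water beads without S9; loss of fluorescence signal means loss of viability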
# Outline: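 Fluorescence from a live-cell protease substrate, read after 24 h in VM7Luc4E2 cells, indicated viability. Test medium came from a 2 h AIME step without hepatic S9 (alginate-water microspheres); concentrations spanned 0.002 - 200 uM, single technical replicate per run.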
Structure (SMILES),AC50,outcome
CCCCOC(=O)[C@@H](C)Oc1ccc(Oc2ccc(C(F)(F)F)cn2)cc1,inconclusive: 0.0002 µM,
CCOC(OCC)OCC,inconclusive: 19.8 µM,
N#Cc1ccccc1O,,inactive

# Experiment: CCTE_Shafer_MEA_dev_active_electrodes_number: CCTE's Neural Network Formation Assay for Number of Active Electrodes, Shafer Lab (AID 2284040);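 as to AC50: potency for loss of active electrodes versus DMSO so lower counts are hits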
# Outline: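 Primary rat cortical neurons on 16-electrode MEA wells, exposed from day 0 through day 12 with compound renewed at DIV 5 and 9 feeds. Active electrodes (mean firing ≥5 spikes/min) counted at DIV 5, 7, 9, 12; trapezoidal AUC across days, loss-of-signal versus DMSO.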
Structure (SMILES),AC50,outcome
CN(CCO)S(=O)(=O)C(F)(F)C(F)(F)C(F)(F)C(F)(F)C(F)(F)C(F)(F)C(F)(F)C(F)(F)F,inconclusive: 1.22 µM,
O=C(O)C(F)(F)C(F)(F)C(F)(F)C(F)(F)C(F)(F)C(F)(F)C(F)(F)C(F)(F)C(F)(F)C(F)F,inconclusive: 0.0321 µM,
NC(O)(C(F)(F)F)C(F)(F)F,inconclusive: 0.003 µM,
O=S(=O)(O)CCC(F)(F)C(F)(F)C(F)(F)C(F)(F)C(F)(F)C(F)(F)C(F)(F)C(F)(F)F,inconclusive: 15 µM,
CCCc1cc(=O)[nH]c(=S)[nH]1,,inactive
O=P(O)(O)CCC(F)(F)C(F)(F)C(F)(F)C(F)(F)C(F)(F)C(F)(F)F,inconclusive: 0.168 µM,
O=C(O)C=C(C(F)(F)F)C(F)(F)F,,inactive
O=C(O)C(F)(F)OC(F)(F)C(F)(F)OC(F)(F)C(F)(F)OC(F)(F)C(F)(F)C(F)(F)C(F)(F)F,inconclusive: 2.98 µM,inactive
FC(F)(F)C(F)(F)C(F)(F)C(F)(F)C(F)(F)C(F)(F)CC1CO1 (stereo not drawn),inconclusive: 0.003 µM,
O=C(O)CCC(F)(F)C(F)(F)C(F)(F)C(F)(F)C(F)(F)F,inconclusive: 15 µM,

# Experiment: CCTE_Shafer_MEA_dev_bursting_electrodes_number: CCTE's Neural Network Formation Assay for Number of Bursting Electrodes, Shafer Lab (AID 2284043);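 as to AC50: potency is for loss of bursting electrodes relative to DMSO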
# Outline: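 Read-out is the per-well number of electrodes bursting at least once every 2 minutes, recorded on days 5, 7, 9 and 12 and collapsed by trapezoidal area under the curve. Cultures were primary rat cortical neurons on MEA plates, treated continuously from plating.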
Structure (SMILES),outcome,AC50
CN(CCO)S(=O)(=O)C(F)(F)C(F)(F)C(F)(F)C(F)(F)C(F)(F)C(F)(F)C(F)(F)C(F)(F)F,inactive,
O=C(O)C(F)(F)C(F)(F)C(F)(F)C(F)(F)C(F)(F)C(F)(F)C(F)(F)C(F)(F)C(F)(F)C(F)F,,inconclusive: 15 µM
O=S(=O)(OCC(F)F)C(F)(F)F,inactive,inconclusive: 15 µM
NC(O)(C(F)(F)F)C(F)(F)F,,inconclusive: 0.0166 µM
OCC(F)(F)C(F)(F)C(F)(F)C(F)F,,inconclusive: 15 µM
O=S(=O)(O)CCC(F)(F)C(F)(F)C(F)(F)C(F)(F)C(F)(F)C(F)(F)C(F)(F)C(F)(F)F,,inconclusive: 15 µM
CCCc1cc(=O)[nH]c(=S)[nH]1,,inconclusive: 10 µM
OCCCC(F)(F)C(F)(F)C(F)(F)F,,inconclusive: 15 µM
O=P(O)(O)CCC(F)(F)C(F)(F)C(F)(F)C(F)(F)C(F)(F)C(F)(F)F,,inconclusive: 15 µM
O=C(O)C=C(C(F)(F)F)C(F)(F)F,inactive,
O=C(O)C(F)(F)OC(F)(F)C(F)(F)OC(F)(F)C(F)(F)OC(F)(F)C(F)(F)C(F)(F)C(F)(F)F,,inconclusive: 15 µM
FC(F)(F)C(F)(F)C(F)(F)C(F)(F)C(F)(F)C(F)(F)CC1CO1 (stereo not drawn),,inconclusive: 0.003 µM

# Experiment: CCTE_Shafer_MEA_dev_LDH: CCTE's Lactate Dehydrogenase Assay for Cytotoxicity in the Neural Network Formation Assay, Shafer Lab (AID 2284068);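 also: exposure for twelve days from plating with re-dosing on DIV 5 and 9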
# Outline: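 Developing rat cortical networks on MEA plates are exposed to compound for 12 days from plating. LDH activity is measured spectrophotometrically, with DMSO as baseline.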
Structure (SMILES),AC50,outcome
CN(CCO)S(=O)(=O)C(F)(F)C(F)(F)C(F)(F)C(F)(F)C(F)(F)C(F)(F)C(F)(F)C(F)(F)F,inconclusive: 0.0267 µM,
C=CC(=O)OCCC(F)(F)C(F)(F)C(F)(F)C(F)(F)F,active: 15 µM,
NCC(F)(F)C(F)(F)C(F)(F)C(F)(F)F,inconclusive: 15 µM,
NC(O)(C(F)(F)F)C(F)(F)F,inconclusive: 0.0818 µM,inactive
OCC(F)(F)C(F)(F)C(F)(F)C(F)F,,inactive
O=S(=O)(O)CCC(F)(F)C(F)(F)C(F)(F)C(F)(F)C(F)(F)C(F)(F)C(F)(F)C(F)(F)F,inconclusive: 15 µM,
C=C(C)C(=O)OCCC(F)(F)C(F)(F)C(F)(F)C(F)(F)C(F)(F)C(F)(F)F,,inactive
FC(F)(F)C(F)(F)CNCC(F)(F)C(F)(F)F,inconclusive: 15 µM,
C[C@]12C=CC(=O)C=C1CC[C@H]1[C@@H]3C[C@@H](O)[C@](O)(C(=O)CO)[C@@]3(C)C[C@H](O)[C@@]12F,,inactive
FC(F)(F)C(F)(F)C(F)(F)C(F)(F)C(F)(F)C(F)(F)CC1CO1 (stereo not drawn),inconclusive: 0.003 µM,
O=C(O)C(F)(F)C(F)(F)C(F)(F)F,,inactive
CC1(C)S[C@@H]2[C@H](NC(=O)COc3ccccc3)C(=O)N2[C@H]1C(=O)O,inconclusive: 0.247 µM,

# Experiment: CCTE_Shafer_MEA_acute_AB: CCTE's Alamar Blue Assay for Cytotoxicity in the Neural Acute Assay, Shafer Lab (AID 2284069);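 also: active compounds lower the viability signal compared with DMSO wells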
# Outline: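 Cytotoxicity endpoint for acute MEA exposures of primary rat cortical neurons on day 13 or 15. Resazurin reduction is read fluorescently at 544/590 nm, with DMSO as the negative-control baseline.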
Structure (SMILES),AC50,outcome
CCCCCCCCCCCC(=O)N(C)CC(=O)O,inconclusive: 14.6 µM,
CC(C)CCCCCCOC(=O)CCCCC(=O)OCCCCCCC(C)C,,inactive
O=C1CCCN1CCO,inconclusive: 15 µM,
Cc1ccc(-c2cc(C(F)(F)F)nn2-c2ccc(S(N)(=O)=O)cc2)cc1,inconclusive: 0.0288 µM,
NCC1(Cc2noc(=O)[nH]2)CCCCC1,inconclusive: 20 µM,
COc1ccc(OC(F)(F)F)cc1CN[C@H]1CCCN[C@H]1c1ccccc1,,inactive
CC(C)C(=O)OCCc1ccccc1,inconclusive: 4.42 µM,
O=C(Nc1ccc2c(O)c(N=Nc3ccc(N=Nc4ccc(S(=O)(=O)O)cc4)cc3)c(S(=O)(=O)O)cc2c1)c1ccccc1,inconclusive: 1.14 µM,
CCN(Cc1cccc(S(=O)(=O)O)c1)c1ccc(C(=C2C=CC(=[N+](CC)Cc3cccc(S(=O)(=O)O)c3)C=C2)c2ccccc2S(=O)(=O)[O-])cc1,inconclusive: 2.59 µM,
CC(=O)OCCC(C)CC(C)(C)C (stereo not drawn),inconclusive: 2.98 µM,
CCO[Si](C)(OCC)OCC,inconclusive: 15 µM,

# Exported with tabs: two of the compounds above.
Structure (SMILES)	AC50	outcome
CC(C)CCCCCCOC(=O)CCCCC(=O)OCCCCCCC(C)C		inactive
O=C1CCCN1CCO	inconclusive: 15 µM	
